Here are results for four molecules from patent US20250352579A1 (HEBEI SENLANG BIOTECHNOLOGY, published 2025).

Results are given in words; binding and its absence hold for the method and conditions named. Some binding calls cover weakened binding; strength is not graded here.

The target of assay [1] is CD7-His protein (UniProt P09564). Kind of assay: SPR, CD7-His immobilised on CM5 chip. For orientation: SPR reads the build-up and loss of mass on a sensor chip optically.
The target in assay [2] is T1, CD7-His protein (UniProt P09564 26-180, limits assumed).
T1 construct: extracellular domain; also called recombinant CD7-His protein; CD7 antigen; not shown: His tag
T1 sequence (looked up): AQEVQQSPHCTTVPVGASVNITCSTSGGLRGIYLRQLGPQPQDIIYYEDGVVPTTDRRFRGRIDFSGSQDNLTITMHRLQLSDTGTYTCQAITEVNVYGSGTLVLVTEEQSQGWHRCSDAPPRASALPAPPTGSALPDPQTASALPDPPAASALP
Kind of assay: SPR, CD7-His immobilised on CM5 chip.

B1: dVHH-D (other)
chain (part 1 of 2): QVQLQESGGGLVQTGGSLRLSCEASERTFSSNAVGWFRQAPGKEREFVAAITWSVGTTYYADSVKGRFTISRDNAKNTVYLQMNSLKPEDTAVYYCAASGARHYSGSYLDFGSWGQGTQVTVSS
chain (part 2 of 2): QVQLQESGGGLVQPGGSLRLSCAASGSTLDYYAIGWFRQAPGKEREGISCISNSGGMTNYADSVKGRFTISRDNAKNTVYLQMNSLKPEDTAVYYCAAGPAWSYCSGYVPAGLDKFGSWGQGTQVTVSS
notes: also called VHH-10+VHH-12; double VHH antibody dVHH-D; not shown: Linker
With B1, the binding entry with CD7-His protein [1] is “binds”.

B2: VHH12 (VHH)
VHH: B1 chain (part 2 of 2)
notes: Variable region only; also called anti-CD7 nanobody VHH12
B2: the binding result with CD7-His protein [1] is “binds”.

B3: dVHH-E (other)
chain (part 1 of 2): B1 chain (part 1 of 2)
chain (part 2 of 2): B1 chain (part 1 of 2)
notes: also called VHH-10+VHH-10; double VHH antibody dVHH-E; not shown: Linker
In the case of B3, the binding entry in the assay with CD7-His protein [2] is “binds”.

B4: VHH10 (VHH)
VHH: B1 chain (part 1 of 2)
notes: Variable region only; also called anti-CD7 nanobody VHH10
For the molecule B4, in the assay with CD7-His protein [2], the binding result was “binds”.
